Data: the supplement of paper PMC10849652
The other results are listed elsewhere or left out.

Protein sequences, listed by entry. Tags and fused reporters are not part of them. Lines headed by an entry give the natural chain unless they say otherwise; changes in a name come on top.
UniProt Q00688: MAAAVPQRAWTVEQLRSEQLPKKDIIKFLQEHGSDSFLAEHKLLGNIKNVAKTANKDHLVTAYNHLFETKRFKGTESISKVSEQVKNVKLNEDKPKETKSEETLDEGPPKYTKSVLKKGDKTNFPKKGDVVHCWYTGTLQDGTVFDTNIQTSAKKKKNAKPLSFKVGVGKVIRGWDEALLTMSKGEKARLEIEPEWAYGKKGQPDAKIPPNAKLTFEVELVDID
UniProt Q9H469: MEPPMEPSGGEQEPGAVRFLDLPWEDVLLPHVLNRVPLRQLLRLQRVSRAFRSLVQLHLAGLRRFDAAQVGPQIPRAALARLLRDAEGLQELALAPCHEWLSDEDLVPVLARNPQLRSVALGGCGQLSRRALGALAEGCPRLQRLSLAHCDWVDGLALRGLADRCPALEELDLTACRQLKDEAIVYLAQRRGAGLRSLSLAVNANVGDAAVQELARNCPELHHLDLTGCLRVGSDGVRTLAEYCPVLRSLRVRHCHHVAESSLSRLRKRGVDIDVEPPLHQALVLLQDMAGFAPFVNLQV
UniProt Q6P4F2: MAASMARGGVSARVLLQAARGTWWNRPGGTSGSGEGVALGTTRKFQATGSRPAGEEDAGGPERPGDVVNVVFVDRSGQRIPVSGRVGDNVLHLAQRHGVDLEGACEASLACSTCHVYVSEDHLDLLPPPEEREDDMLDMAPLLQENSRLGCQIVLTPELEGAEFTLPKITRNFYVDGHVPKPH
UniProt Q9Y3I1: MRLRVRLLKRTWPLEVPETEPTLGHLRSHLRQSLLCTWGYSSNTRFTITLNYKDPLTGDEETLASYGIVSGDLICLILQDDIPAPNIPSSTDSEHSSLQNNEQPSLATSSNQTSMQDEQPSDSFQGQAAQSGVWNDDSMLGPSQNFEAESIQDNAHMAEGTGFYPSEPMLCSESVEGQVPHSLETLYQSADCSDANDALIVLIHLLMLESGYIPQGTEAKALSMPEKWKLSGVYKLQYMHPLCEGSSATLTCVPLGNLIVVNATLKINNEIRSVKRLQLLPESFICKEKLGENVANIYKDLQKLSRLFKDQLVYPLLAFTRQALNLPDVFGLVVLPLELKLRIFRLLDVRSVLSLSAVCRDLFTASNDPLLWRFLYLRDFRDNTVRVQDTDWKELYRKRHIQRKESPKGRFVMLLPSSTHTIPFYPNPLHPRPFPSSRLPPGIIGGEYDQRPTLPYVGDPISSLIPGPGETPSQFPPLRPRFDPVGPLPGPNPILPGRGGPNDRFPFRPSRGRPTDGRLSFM
UniProt Q6UN15: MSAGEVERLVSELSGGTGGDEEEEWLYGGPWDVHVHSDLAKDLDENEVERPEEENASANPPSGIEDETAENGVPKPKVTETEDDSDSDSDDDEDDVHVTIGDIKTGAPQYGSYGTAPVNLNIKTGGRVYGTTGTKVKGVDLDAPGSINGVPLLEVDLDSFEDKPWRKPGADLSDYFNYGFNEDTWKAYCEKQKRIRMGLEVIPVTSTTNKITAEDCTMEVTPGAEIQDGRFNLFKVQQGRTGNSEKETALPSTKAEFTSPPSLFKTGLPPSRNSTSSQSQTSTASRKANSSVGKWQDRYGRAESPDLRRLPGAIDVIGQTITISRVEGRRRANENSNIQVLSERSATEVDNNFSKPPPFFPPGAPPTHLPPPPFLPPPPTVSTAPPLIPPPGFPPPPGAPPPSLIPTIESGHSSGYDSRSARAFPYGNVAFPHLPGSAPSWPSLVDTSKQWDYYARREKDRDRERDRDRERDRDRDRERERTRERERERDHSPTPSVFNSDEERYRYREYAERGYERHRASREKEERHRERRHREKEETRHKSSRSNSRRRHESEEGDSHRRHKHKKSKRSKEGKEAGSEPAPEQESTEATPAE
UniProt O95466, whole entry, looked up: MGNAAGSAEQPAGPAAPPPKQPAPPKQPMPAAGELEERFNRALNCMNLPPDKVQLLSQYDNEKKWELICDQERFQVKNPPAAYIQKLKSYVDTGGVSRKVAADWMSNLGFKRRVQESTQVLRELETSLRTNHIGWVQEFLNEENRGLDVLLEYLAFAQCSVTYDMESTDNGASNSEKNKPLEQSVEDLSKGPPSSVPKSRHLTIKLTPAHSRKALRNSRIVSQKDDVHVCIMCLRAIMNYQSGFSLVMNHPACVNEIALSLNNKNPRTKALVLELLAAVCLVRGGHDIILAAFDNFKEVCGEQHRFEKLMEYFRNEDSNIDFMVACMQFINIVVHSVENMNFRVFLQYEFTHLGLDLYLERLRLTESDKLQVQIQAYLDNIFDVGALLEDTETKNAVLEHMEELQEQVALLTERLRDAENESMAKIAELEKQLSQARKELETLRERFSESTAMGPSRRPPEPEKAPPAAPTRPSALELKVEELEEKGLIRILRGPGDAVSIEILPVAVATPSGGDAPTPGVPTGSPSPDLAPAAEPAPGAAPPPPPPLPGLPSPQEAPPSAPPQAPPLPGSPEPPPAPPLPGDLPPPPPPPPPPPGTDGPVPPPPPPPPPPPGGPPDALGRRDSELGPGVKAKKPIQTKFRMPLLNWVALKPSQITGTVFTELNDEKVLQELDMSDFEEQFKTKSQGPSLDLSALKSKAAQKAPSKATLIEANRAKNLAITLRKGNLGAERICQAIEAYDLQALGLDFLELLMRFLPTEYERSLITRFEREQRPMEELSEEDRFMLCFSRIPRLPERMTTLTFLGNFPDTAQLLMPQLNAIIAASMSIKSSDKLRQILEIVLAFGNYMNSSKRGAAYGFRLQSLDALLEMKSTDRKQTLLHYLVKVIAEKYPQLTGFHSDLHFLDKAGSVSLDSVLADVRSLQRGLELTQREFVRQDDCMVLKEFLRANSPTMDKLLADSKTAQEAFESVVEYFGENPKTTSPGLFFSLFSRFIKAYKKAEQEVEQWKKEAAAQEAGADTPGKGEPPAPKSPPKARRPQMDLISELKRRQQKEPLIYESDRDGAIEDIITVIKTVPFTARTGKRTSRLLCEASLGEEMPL
UniProt Q92562: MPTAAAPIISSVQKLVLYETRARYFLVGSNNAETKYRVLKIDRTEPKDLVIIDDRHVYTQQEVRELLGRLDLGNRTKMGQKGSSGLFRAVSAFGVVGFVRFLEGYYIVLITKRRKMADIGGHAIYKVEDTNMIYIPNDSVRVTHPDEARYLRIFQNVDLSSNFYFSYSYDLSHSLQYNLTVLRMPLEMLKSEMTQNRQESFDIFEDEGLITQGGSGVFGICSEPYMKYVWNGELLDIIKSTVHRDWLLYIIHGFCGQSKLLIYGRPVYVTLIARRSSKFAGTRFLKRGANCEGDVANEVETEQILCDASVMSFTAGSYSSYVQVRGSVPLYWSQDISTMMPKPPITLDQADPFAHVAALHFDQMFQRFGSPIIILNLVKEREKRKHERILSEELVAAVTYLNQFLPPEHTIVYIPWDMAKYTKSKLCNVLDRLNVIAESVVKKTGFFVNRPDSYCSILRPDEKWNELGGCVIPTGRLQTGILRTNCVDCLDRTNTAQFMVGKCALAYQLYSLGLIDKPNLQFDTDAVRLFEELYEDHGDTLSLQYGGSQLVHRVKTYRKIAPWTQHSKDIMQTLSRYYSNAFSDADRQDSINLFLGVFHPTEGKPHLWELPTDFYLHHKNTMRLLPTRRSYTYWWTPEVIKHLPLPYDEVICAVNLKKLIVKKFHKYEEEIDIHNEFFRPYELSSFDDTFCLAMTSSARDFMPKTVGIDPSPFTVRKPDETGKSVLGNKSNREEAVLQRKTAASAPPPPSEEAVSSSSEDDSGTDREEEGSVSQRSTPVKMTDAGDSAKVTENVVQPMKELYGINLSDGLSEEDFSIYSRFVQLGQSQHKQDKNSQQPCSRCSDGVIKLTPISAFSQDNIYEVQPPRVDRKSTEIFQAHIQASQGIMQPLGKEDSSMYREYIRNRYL
UniProt Q9Y680: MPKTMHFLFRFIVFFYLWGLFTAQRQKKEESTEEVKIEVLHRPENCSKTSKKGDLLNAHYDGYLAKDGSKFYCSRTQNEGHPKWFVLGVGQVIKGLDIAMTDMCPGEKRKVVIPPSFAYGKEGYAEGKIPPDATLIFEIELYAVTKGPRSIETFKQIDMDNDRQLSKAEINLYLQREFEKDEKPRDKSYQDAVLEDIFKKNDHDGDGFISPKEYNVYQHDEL
UniProt Q9NXK8: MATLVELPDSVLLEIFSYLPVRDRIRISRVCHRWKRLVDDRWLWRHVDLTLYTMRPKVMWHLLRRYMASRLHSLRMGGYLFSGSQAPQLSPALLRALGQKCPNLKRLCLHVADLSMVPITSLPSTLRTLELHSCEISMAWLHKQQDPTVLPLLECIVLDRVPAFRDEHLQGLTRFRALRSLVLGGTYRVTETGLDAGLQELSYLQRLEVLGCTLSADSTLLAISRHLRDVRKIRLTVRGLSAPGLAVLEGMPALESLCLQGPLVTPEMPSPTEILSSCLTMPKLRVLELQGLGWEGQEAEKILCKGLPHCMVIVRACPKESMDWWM
UniProt Q6PJ61: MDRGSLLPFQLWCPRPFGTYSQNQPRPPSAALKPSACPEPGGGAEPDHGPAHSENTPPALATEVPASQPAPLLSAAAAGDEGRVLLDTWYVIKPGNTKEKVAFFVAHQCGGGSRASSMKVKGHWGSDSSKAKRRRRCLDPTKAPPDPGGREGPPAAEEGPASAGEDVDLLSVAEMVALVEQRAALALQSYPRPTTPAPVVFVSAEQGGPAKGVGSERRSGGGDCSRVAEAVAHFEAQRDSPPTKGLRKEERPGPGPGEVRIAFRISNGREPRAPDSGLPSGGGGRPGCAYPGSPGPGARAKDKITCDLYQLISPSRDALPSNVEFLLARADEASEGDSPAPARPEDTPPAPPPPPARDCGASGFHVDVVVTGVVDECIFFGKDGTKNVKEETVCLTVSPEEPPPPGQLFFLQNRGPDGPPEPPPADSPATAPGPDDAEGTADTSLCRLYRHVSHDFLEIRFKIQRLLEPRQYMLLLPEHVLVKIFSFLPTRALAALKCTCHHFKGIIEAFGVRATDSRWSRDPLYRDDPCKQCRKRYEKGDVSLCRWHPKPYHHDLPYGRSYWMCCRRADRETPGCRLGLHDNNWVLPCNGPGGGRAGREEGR
UniProt Q9UKT5: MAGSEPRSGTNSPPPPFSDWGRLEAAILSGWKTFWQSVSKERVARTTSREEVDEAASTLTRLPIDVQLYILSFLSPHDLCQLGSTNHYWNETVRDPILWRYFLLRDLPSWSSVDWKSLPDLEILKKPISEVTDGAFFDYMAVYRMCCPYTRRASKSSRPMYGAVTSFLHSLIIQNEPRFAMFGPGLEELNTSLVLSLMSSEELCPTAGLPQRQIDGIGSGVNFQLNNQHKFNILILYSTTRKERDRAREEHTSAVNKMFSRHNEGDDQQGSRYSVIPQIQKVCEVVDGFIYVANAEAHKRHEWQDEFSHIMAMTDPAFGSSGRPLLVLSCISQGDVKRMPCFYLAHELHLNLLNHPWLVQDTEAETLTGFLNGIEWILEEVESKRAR
UniProt Q96IG2: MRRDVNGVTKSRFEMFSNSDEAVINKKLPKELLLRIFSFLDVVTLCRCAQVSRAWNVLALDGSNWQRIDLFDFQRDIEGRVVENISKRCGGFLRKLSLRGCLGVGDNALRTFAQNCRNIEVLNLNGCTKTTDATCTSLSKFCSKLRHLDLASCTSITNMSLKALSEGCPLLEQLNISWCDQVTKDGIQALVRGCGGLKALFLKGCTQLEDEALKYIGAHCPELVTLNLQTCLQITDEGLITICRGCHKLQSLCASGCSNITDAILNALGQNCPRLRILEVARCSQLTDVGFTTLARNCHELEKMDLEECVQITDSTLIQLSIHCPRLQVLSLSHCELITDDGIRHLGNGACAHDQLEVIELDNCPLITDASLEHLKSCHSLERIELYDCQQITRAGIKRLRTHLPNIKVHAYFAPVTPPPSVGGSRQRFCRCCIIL
UniProt Q96NB1: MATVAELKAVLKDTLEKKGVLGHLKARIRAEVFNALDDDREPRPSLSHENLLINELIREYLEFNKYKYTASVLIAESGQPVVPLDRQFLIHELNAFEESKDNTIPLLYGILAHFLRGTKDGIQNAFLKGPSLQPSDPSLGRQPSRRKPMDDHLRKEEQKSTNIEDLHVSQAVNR
UniProt Q9HB96: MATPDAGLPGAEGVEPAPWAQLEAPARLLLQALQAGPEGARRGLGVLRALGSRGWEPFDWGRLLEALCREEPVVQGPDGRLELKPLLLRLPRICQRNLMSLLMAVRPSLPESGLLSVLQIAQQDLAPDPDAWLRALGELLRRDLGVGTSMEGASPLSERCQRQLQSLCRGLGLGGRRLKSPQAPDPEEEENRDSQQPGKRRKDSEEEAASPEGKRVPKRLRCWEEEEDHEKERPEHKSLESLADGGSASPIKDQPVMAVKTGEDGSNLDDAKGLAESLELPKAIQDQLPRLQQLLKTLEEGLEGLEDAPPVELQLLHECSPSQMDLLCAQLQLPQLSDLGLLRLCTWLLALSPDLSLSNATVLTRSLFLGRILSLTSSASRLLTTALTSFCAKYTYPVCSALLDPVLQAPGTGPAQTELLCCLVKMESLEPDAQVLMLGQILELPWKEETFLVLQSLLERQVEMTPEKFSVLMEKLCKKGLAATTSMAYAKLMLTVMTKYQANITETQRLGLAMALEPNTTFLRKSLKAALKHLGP

What was measured:
Assay in all cases: log2 fold change, soluble protein after heating vs DMSO (PISA); higher = thermal stabilisation; K562 lysate, 10 uM; active = over 0.2 and 3.5 SD of the protein, either way, in both replicates (recomputed)
nilotinib = compound: Cc1cn(-c2cc(NC(=O)c3ccc(C)c(Nc4nccc(-c5cccnc5)n4)c3)cc(C(F)(F)F)c2)cn1 [nilotinib]
How it was run: (§1)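 Pellets of K562 cells were dounce-homogenised in PBS pH 7.4 with 1 mM MgCl2, and the crude extract was held at 1 mg/mL protein for a 30 min treatment with 10 μM compound. Aliquots were heated for 3 min over 48°C-58°C and pooled before NP-40 was added to 0.5% at 4°C. The supernatant from 21,000xg for 90 min was quantified by TMTpro 16plex LC-MS/MS with channel sums equalised. Values are reported from duplicates as log-two fold change in thermal stability relative to solvent controls.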

[1] = compound: Cc1nc(Nc2n[nH]c3c2CN(C(=O)N[C@H](CN(C)C)c2ccccc2)C3(C)C)c2sccc2n1
How it was run: as §1

dasatinib = compound: Cc1nc(Nc2ncc(C(=O)Nc3c(C)cccc3Cl)s2)cc(N2CCN(CCO)CC2)n1 [dasatinib]
How it was run: as §1

[2] = compound: Cc1ncc(-c2ccnc(Nc3ccc(S(C)(=O)=O)cc3)n2)n1C(C)C
How it was run: as §1

[3] = compound: Cn1cc(-c2ccc3c(c2)CCN3C(=O)Cc2cccc(C(F)(F)F)c2)c2c(N)ncnc21
How it was run: as §1

quisinostat = compound: Cn1cc(CNCC2CCN(c3ncc(C(=O)NO)cn3)CC2)c2ccccc21 [quisinostat]
How it was run: as §1

tipifarnib = compound: Cn1cncc1[C@@](N)(c1ccc(Cl)cc1)c1ccc2c(c1)c(-c1cccc(Cl)c1)cc(=O)n2C [tipifarnib]
How it was run: as §1

[4] = compound: NC(=O)Nc1cc(-c2cccc(F)c2)sc1C(=O)N[C@H]1CCCNC1
How it was run: as §1

[5] = compound: NC(=O)c1cnc(N[C@@H]2CCCC[C@@H]2N)nc1Nc1cccc(-n2nccn2)c1
How it was run: as §1

[6] = compound: NC1(c2ccc(-c3nc4ccn5c(=O)[nH]nc5c4cc3-c3ccccc3)cc2)CCC1
How it was run: as §1

Measured: log2 fold change

FKBP3 (UniProt Q00688)
inactive: nilotinib -0.002 | [1] 0.005 | dasatinib 0.018 | [2] 0.037 | [3] -0.028 | quisinostat -0.007 | tipifarnib 0.012 | [4] 0.015 | [5] -0.013 | [6] 0.012

FBL (UniProt P22087)
inactive: nilotinib 0 | [1] -0.005 | dasatinib -0.023 | [2] -0.015 | [3] 0.053 | quisinostat -0.005 | tipifarnib 0.009 | [4] -0.016 | [5] 0.009 | [6] -0.05

FBXL15 (UniProt Q9H469)
inactive: nilotinib -0.003 | [1] 0.034 | dasatinib 0 | [2] -0.014 | [3] 0.051 | quisinostat -0.099 | tipifarnib 0.017 | [4] -0.014

FDX1 (UniProt P10109)
inactive: nilotinib -0.043 | [1] -0.043 | dasatinib 0.044 | [2] -0.032 | [3] 0.043 | quisinostat 0.03 | tipifarnib 0.003 | [4] -0.03 | [5] 0.009 | [6] 0.076

FDX2 (UniProt Q6P4F2)
inactive: nilotinib 0.135 | [1] -0.025 | dasatinib 0.058 | [2] -0.067 | [3] -0.006 | quisinostat -0.068 | tipifarnib 0.096 | [4] 0.05 | [5] -0.068 | [6] 0.052

FBXO22 (UniProt Q8NEZ5)
inactive: nilotinib 0.005 | [1] 0.021 | dasatinib -0.028 | [2] -0.036 | [3] 0.025 | quisinostat -0.047 | tipifarnib 0.034 | [4] 0.012 | [5] -0.007 | [6] -0.016

FKBP15 (UniProt Q5T1M5)
inactive: nilotinib -0.01 | [1] 0.001 | dasatinib -0.039 | [2] -0.021 | [3] 0 | quisinostat 0.003 | tipifarnib -0.067 | [4] 0.007 | [5] 0.015 | [6] -0.033

FBXO7 (UniProt Q9Y3I1)
inactive: nilotinib -0.022 | [1] 0.002 | dasatinib -0.007 | [2] 0.026 | [3] 0 | quisinostat 0.01 | tipifarnib 0.053 | [4] -0.012 | [5] 0.014 | [6] 0.008

FKBP2 (UniProt P26885)
inactive: nilotinib -0.036 | [1] -0.055 | dasatinib -0.018 | [2] -0.044 | [3] -0.001 | quisinostat -0.06 | tipifarnib 0.014 | [4] 0.055 | [5] -0.044 | [6] -0.008

FIP1L1 (UniProt Q6UN15)
inactive: nilotinib -0.019 | [1] -0.004 | dasatinib -0.022 | [2] 0.014 | [3] -0.015 | quisinostat 0.02 | tipifarnib -0.057 | [4] 0.002 | [5] 0.009 | [6] 0.029

FMNL1 isoform 3 (UniProt O95466)
inactive: nilotinib -0.174 | [1] -0.043 | dasatinib -0.13 | [2] -0.135 | [3] 0.009 | quisinostat -0.047 | tipifarnib -0.038 | [4] -0.051 | [5] 0.012 | [6] -0.042

FEZ2 isoform 2 (UniProt Q9UHY8)
inactive: nilotinib 0.002 | [1] 0.005 | dasatinib -0.007 | [2] 0.02 | [3] 0.009 | quisinostat -0.05 | tipifarnib -0.013 | [4] 0.02 | [5] 0.029 | [6] -0.023

FAU (UniProt E9PR30)
inactive: nilotinib 0.006 | [1] 0.001 | dasatinib -0.018 | [2] 0.005 | [3] 0.052 | quisinostat 0.002 | tipifarnib 0.046 | [4] -0.055 | [5] 0 | [6] -0.058

FGF2 (UniProt P09038)
inactive: nilotinib 0.157 | [1] -0.031 | dasatinib 0.145 | [2] -0.046 | [3] 0 | quisinostat 0.018 | tipifarnib 0.147 | [4] 0.022 | [5] 0.025 | [6] 0.041

FCF1 (UniProt Q9Y324)
inactive: nilotinib -0.275 | [1] -0.001 | dasatinib 0.01 | [2] 0.078 | [3] 0.113 | quisinostat 0.157 | tipifarnib 0.1 | [4] -0.233

FIG4 (UniProt Q92562)
inactive: nilotinib -0.02 | [1] 0.144 | dasatinib -0.007 | [2] 0.08 | [3] 0.145 | quisinostat 0.077 | tipifarnib -0.038 | [4] 0.013 | [5] -0.066 | [6] 0.06

Reprinted at random: 2 entries already listed, in no set order.
FIP1L1 (UniProt Q6UN15)
inactive: nilotinib -0.019 | [1] -0.004 | dasatinib -0.022 | [2] 0.014 | [3] -0.015 | quisinostat 0.02 | tipifarnib -0.057 | [4] 0.002 | [5] 0.009 | [6] 0.029

FBXL15 (UniProt Q9H469)
inactive: nilotinib -0.003 | [1] 0.034 | dasatinib 0 | [2] -0.014 | [3] 0.051 | quisinostat -0.099 | tipifarnib 0.017 | [4] -0.014

Continuation:

FKBP7 (UniProt Q9Y680)
inactive: nilotinib -0.005 | [1] 0.018 | dasatinib -0.01 | [2] 0.074 | [3] -0.038 | quisinostat -0.045 | tipifarnib 0.13 | [4] 0.024 | [5] 0.039 | [6] -0.019

FNBP1 (UniProt Q96RU3)
inactive: nilotinib -0.054 | [1] 0.075 | dasatinib 0.029 | [2] 0.096 | [3] 0.051 | quisinostat -0.009 | tipifarnib -0.029 | [4] 0.054 | [5] 0.04 | [6] -0.074

FBXO6 (UniProt Q9NRD1)
inactive: nilotinib 0.032 | [1] 0.008 | dasatinib 0.051 | [2] 0.021 | [3] -0.022 | quisinostat 0.041 | tipifarnib -0.006 | [4] 0.014 | [5] -0.044 | [6] 0.016

FDPS (UniProt P14324)
inactive: nilotinib 0.044 | [1] 0.1 | dasatinib -0.044 | [2] 0.001 | [3] 0.023 | quisinostat -0.07 | tipifarnib 0 | [4] 0.033 | [5] 0.003 | [6] -0.037

FBXL12 (UniProt Q9NXK8)
inactive: nilotinib -0.025 | [1] -0.035 | dasatinib -0.089 | [2] 0.069 | [3] -0.046 | quisinostat 0.063 | tipifarnib 0.063 | [4] 0.054 | [5] -0.008 | [6] -0.006

FNTA (UniProt P49354)
inactive: nilotinib -0.012 | [1] -0.01 | dasatinib -0.021 | [2] -0.036 | [3] 0.004 | quisinostat 0.003 | tipifarnib 0.058 | [4] 0.017 | [5] -0.032 | [6] 0.014

FCHSD1 (UniProt Q86WN1)
inactive: nilotinib 0.013 | [1] 0.048 | dasatinib 0.111 | [2] 0.009 | [3] 0.009 | quisinostat 0.089 | tipifarnib -0.041 | [4] 0.027 | [5] -0.02 | [6] -0.009

FBXO46 (UniProt Q6PJ61)
inactive: nilotinib 0.001 | [1] -0.009 | dasatinib 0 | [2] -0.047 | [3] 0.041 | quisinostat -0.018 | tipifarnib 0.088 | [4] -0.01 | [5] 0.081

FBXO4 (UniProt Q9UKT5)
inactive: nilotinib 0.011 | [1] 0.019 | dasatinib -0.049 | [2] -0.001 | [3] 0.004 | quisinostat 0 | tipifarnib 0.004 | [4] -0.002 | [5] 0.023 | [6] 0.036

FBXL20 (UniProt Q96IG2)
inactive: nilotinib -0.007 | [1] 0.009 | dasatinib -0.015 | [2] -0.116 | [3] 0.023 | quisinostat -0.051 | tipifarnib 0.023 | [4] -0.04 | [5] 0.017 | [6] 0.005

FAM8A1 (UniProt Q9UBU6)
inactive: nilotinib -0.051 | [1] -0.184 | dasatinib 0.1 | [2] 0.009 | [3] -0.064 | quisinostat -0.008 | tipifarnib -0.065 | [4] 0.072 | [5] 0.119 | [6] -0.004

FOPNL (UniProt Q96NB1)
inactive: nilotinib -0.008 | [1] 0.002 | dasatinib -0.091 | [2] -0.046 | [3] 0.404 | quisinostat 0.031 | tipifarnib -0.034 | [4] 0.005 | [5] 0.084

FANCE (UniProt Q9HB96)
inactive: nilotinib 0.036 | [1] -0.061 | dasatinib -0.037 | [2] -0.057 | [3] -0.025 | quisinostat -0.04 | tipifarnib 0.062 | [4] 0.043 | [5] -0.011

FLYWCH1 isoform 3 (UniProt Q4VC44)
inactive: nilotinib 0.145 | [1] -0.126 | dasatinib 0.075 | [2] -0.129 | [3] -0.026 | quisinostat 0.089 | tipifarnib -0.225 | [4] -0.064 | [5] 0.003
